Laboratory results: patent publication US20170217948A1, “XANTHINE OXIDASE INHIBITOR” (Teijin Pharma Limited, priority 2014, published 2017)
Some of these results come from one statement about several compounds together.

Assays:
[1] = Hypouricemic effect (normal rats), 2 hours after oral administration; assay type: in vivo, Sprague-Dawley male rats; settings: 2 hours after administration
[2] = Prolonged hypouricemic effect (normal rats), 24 hours after administration; assay type: in vivo, Sprague-Dawley male rats; settings: oral

SMILES	Percentage of hypouricemic effect ([1]; 10 mg/kg) [%]	Percentage of hypouricemic effect ([2]; 10 mg/kg) [%]	Percentage of hypouricemic effect ([1]; 1 mg/kg) [%]	Percentage of hypouricemic effect ([2]; 3 mg/kg) [%]
Cc1nc(-c2ccc(OCC(C)C)c(-n3ccnn3)c2)sc1C(=O)O [Compound 17, 4-methyl-2-[4-(2-methylpropoxy)-3-(1H-1,2,3-triazol-1-yl)phenyl]-1,3-thiazole-5-carboxylic acid]	≥ 50	≥ 50		
Cc1nc(-c2ccc(OCC(C)C)c(-n3cnnn3)c2)sc1C(=O)O [Compound 25, 4-methyl-2-[4-(2-methylpropoxy)-3-(1H-1,2,3,4-tetrazol-1-yl)phenyl]-1,3-thiazole-5-carboxylic acid]	≥ 50	≥ 50	≥ 50	≥ 40
Cc1nc(-c2ccc(OC(C)C)c(-n3cnnn3)c2)sc1C(=O)O [Compound 24, 4-methyl-2-[4-(propan-2-yloxy)-3-(1H-1,2,3,4-tetraazole-1-yl)phenyl]-1,3-thiazole-5-carboxylic acid]	≥ 50		≥ 50	
Cc1nc(-c2ccc(OCC(C)(C)C)c(-n3cnnn3)c2)sc1C(=O)O [Compound 26, 2-[4-(2,2-dimethylpropoxy)-3-(1H-1,2,3,4-tetrazol-1-yl)phenyl]-4-methyl-1,3-thiazole-5-carboxylic acid]	≥ 50	≥ 50	≥ 50	≥ 40
